{
  "source": "PubChem BioAssay AID1347076",
  "about": "(National Center for Advancing Translational Sciences (NCATS), 2019)",
  "note": "“And” between values parts separate entries of the source, which are not always exact repeats. Equal entries are not always repeated. Hit rate of the full screen: of about 400,000 compounds, about 13,000 (3.2%) were called active. Inconclusive results, whose numbers are uncertain, are shown with a selection of clear calls. The call rests on the fitted dose curve; in most records, active means well fitted cell-killing curve with a large enough effect; inconclusive means small, poorly fitted or top-dose-only effect, or effect the other way; inactive means flat fitted curve, though single readings scatter. Potencies of inconclusive entries are doubtful fits and often do not repeat. On the % scale 0 is the no-effect control and ±100 the full control effect; potency means the concentration at half of the fitted maximal effect.",
  "data": [
    {"assay": "qHTS assay for MDR1-selective chemotherapeutics: Primary screen using the drug-selected MDR subline cells KB-V1; further: nearly all actives have a fitted effect of over 60% in size", "settings": "KB-V1 MDR cells viability, CellTiter-Glo, 72 h; activity change, negative = cytotoxicity: at 46.1 µM (top of the series)", "in_short": "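Cytotoxicity via CellTiter-Glo luminescence after 72 h compound exposure at 37 degrees C. Cells: drug-selected KB-V1 line, DMEM phenol-red free plus 10% FBS. Compounds tested at multiple concentrations; normalized data fitted to concentration-effect curves.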", "values": [
      {"smiles": "CCC(C(=O)NCCCc1ccccc1)c1ccccc1", "note": "(stereo not drawn)", "Potency": "inconclusive: 29.1 µM [cytotoxic, partial curve, poor fit]"},
      {"smiles": "Cc1c(C(=O)NC2CC(=O)N(c3ccc4c(c3)OCCO4)C2)cccc1[N+](=O)[O-]", "note": "(stereo not drawn)", "Potency": "inactive"},
      {"smiles": "CN(C)c1ccc(P(=O)(OCc2ccccc2)C(O)c2ccc(Br)cc2)cc1", "note": "(stereo not drawn)", "Potency": "inactive"},
      {"smiles": "C/C(=N\\Nc1nc2ccccc2s1)c1ccc(Br)s1", "Potency": "inconclusive: 20.6 µM [cytotoxic, partial curve]"},
      {"smiles": "CSc1ccc(CN2CCC(C(=O)NCc3ccc(C)cc3)CC2)cc1", "Potency": "inactive"},
      {"smiles": "Cn1c(=O)c2sccc2n(Cc2ccccc2)c1=O", "Potency": "inconclusive: 14.6 µM [cytotoxic, partial curve]"},
      {"smiles": "Cc1cccc(CSc2cn(CC(=O)N3CCCCCC3)c3ccccc23)c1", "Potency": "inconclusive: 16.4 µM [cytotoxic, single point]"},
      {"smiles": "Cc1[nH]c2ccc(F)cc2c1CCN(Cc1cccnc1)C(=S)Nc1ccccc1", "Potency": "inactive"},
      {"smiles": "COC(=O)c1sc(S(=O)(=O)Oc2ccccc2NC(C)=O)c(C(=O)OC)c1C", "Potency": "inconclusive: 10.3 µM [cytotoxic, partial curve]"},
      {"smiles": "CCC(c1nnnn1CCc1ccccc1)N(Cc1ccco1)Cc1cc2cc(C)cc(C)c2[nH]c1=O", "note": "(stereo not drawn)", "Potency": "inactive"},
      {"smiles": "CC(=O)N1CCN(c2ccc(NC(=O)c3ccc([N+](=O)[O-])o3)cc2Cl)CC1", "Potency": "inconclusive: 6.51 µM [cytotoxic, full curve, poor fit]"},
      {"smiles": "CN1CCN(C2=C(NS(=O)(=O)c3cccs3)C(=O)c3ccccc3C2=O)CC1", "Potency": "inconclusive: 20.6 µM [cytotoxic, single point]"},
      {"smiles": "COc1cc(/C=N/Nc2ncc(C(F)(F)F)cc2Cl)cc(OC)c1O", "Potency": "active: 20.6 µM"},
      {"smiles": "COc1ccc(OC)c(CNc2ncnc3onc(-c4ccc(Cl)cc4)c23)c1", "Potency": "active: 8.2 µM"},
      {"smiles": "Cc1nc2cc(-c3cccc(F)c3)nn2c(C)c1CCC(=O)NC1CCCCC1", "Potency": "inactive"},
      {"smiles": "CCCS(=O)(=O)NC(=O)C1(C)CCCN(C(=O)c2ccccc2OC)C1", "note": "(stereo not drawn)", "Potency": "inactive"},
      {"smiles": "CCOC(=O)c1sc(NC(=O)CSc2ncccn2)c(C#N)c1C", "Potency": "inconclusive: 16.4 µM [cytotoxic, partial curve]"},
      {"smiles": "O=C(c1ccc([N+](=O)[O-])o1)N1CCc2ccccc2C1", "Potency": "inconclusive: 29.1 µM [cytotoxic, single point]"},
      {"smiles": "CCCc1nnc(SCC(=O)N2CCCCC2C)n1CCOC", "note": "(stereo not drawn)", "Potency": "inconclusive: 25.9 µM [cytotoxic, single point]"},
      {"smiles": "COc1cccc(CNC(=O)[C@@H]2CCCN2C(=O)[C@H]2CCCCN2C(=O)c2ccccc2)c1", "Potency": "inactive"},
      {"smiles": "CCN(CC)S(=O)(=O)c1ccc2c(c1)c(=O)c(C(=O)N1CCN(c3ccccc3)CC1)cn2C", "Potency": "inconclusive: 29.1 µM [cytotoxic, single point]"},
      {"smiles": "Cc1onc(-c2c(F)cccc2Cl)c1C(=O)Nc1cccc(S(=O)(=O)N2CCCCC2)c1", "Potency": "inconclusive: 18.4 µM [cytotoxic, single point]"},
      {"smiles": "COc1ccc(-c2nn(C)c3sc(C(=O)N4CCN(c5cc(Cl)ccc5C)CC4)cc23)cc1OC", "Potency": "inactive"},
      {"smiles": "CC1(C)SC(=S)N(Cc2ccc3c(c2)OCO3)C1N(O)C(=O)NC1CCCCC1", "note": "(stereo not drawn)", "Potency": "active: 14.6 µM"},
      {"smiles": "Cc1cc(C)n(-c2nc(C(=O)O)cs2)n1", "Potency": "inconclusive: 0.0046 µM [cytotoxic, full curve, poor fit]"},
      {"smiles": "O=C1c2ccccc2C(=O)N1c1ccc2ncccc2c1", "Potency": "inconclusive: 8.2 µM [rising, partial curve]"},
      {"smiles": "COc1ccc(C(=O)CCC(=O)Nc2cccc(C(C)=O)c2)cc1", "Potency": "inactive"},
      {"smiles": "O=C(N/N=C\\c1c(O)ccc2ccccc12)c1cncc(Br)c1", "Potency": "inconclusive: 1.16 µM [cytotoxic, full curve]"},
      {"smiles": "CC(C)[C@H](NC(=O)c1c(F)cccc1F)C(=O)N1CCN(c2ccc(F)cc2)CC1", "Potency": "inconclusive: 7.31 µM [cytotoxic, partial curve, poor fit]"},
      {"smiles": "CCOc1ccc(OCC(O)CNC2CCN(Cc3ccccc3)CC2)cc1", "note": "(stereo not drawn)", "Potency": "active: 16.4 µM"},
      {"smiles": "C[C@@H]1CN([C@@H](C)CO)C(=O)c2cc(Br)cnc2O[C@@H]1CN(C)Cc1ccc(Oc2ccccc2)cc1", "Potency": "inconclusive: 6.51 µM [cytotoxic, full curve]"},
      {"smiles": "O=C(COc1ccc(S(=O)(=O)N2CCCC2)cc1Cl)NCc1cccnc1", "Potency": "inconclusive: 29.1 µM [cytotoxic, single point]"},
      {"smiles": "Cc1ccc(Cn2c(=O)n(Cc3ccc(Cl)cc3)c(=O)c3cccnc32)cc1", "Potency": "inactive"},
      {"smiles": "CCOc1cccc(C(=O)Nc2ccncc2)c1", "Potency": "inconclusive: 5.8 µM [cytotoxic, partial curve]"},
      {"smiles": "COc1ccccc1NC(=O)C1CCCN(c2ncnc3c2nc2n3CCCCC2)C1", "note": "(stereo not drawn)", "Potency": "inconclusive: 20.6 µM [cytotoxic, single point]"},
      {"smiles": "Cc1noc(C)c1C(=O)OCC(=O)/C=C1\\N(C)c2ccccc2C1(C)C", "Potency": "inconclusive: 22.4 µM [cytotoxic, single point]"},
      {"smiles": "Cc1ccc(CNC(=O)c2cc3sccc3n2Cc2ccc(F)cc2)cc1", "Potency": "inactive"},
      {"smiles": "Cc1ccc(C(=O)OCC(=O)N2CCCc3ccccc32)cc1C", "Potency": "inconclusive: 20.6 µM [cytotoxic, single point]"},
      {"smiles": "C#CCOCCOCCOCCNc1nc(N2CCN(C(=O)Cn3cc(CCO)nn3)CC2)nc(N2CCN(C(=O)[C@H](CCCCN)n3cc(CC(C)O)nn3)CC2)n1", "note": "(stereo partly drawn)", "Potency": "inconclusive: 7.31 µM [rising, partial curve, poor fit]"},
      {"smiles": "CC(C)CCNC(=O)C1(C)CCN1Cc1ccc(-c2ccccn2)cc1", "note": "(stereo not drawn)", "Potency": "inactive"},
      {"smiles": "CCOC(=O)c1c(N)sc(C(=O)N2CCOCC2)c1C", "Potency": "inconclusive: 29.1 µM [cytotoxic, single point]"},
      {"smiles": "COc1ccc(OCc2cc(/C=N\\NC(=O)c3ccccc3)ccc2OC)cc1", "activity change, negative = cytotoxicity": "inconclusive: -44.1%"},
      {"smiles": "O=C(COC(=O)c1cc(Cl)ccc1[N+](=O)[O-])Nc1cccc2ccccc12", "Potency": "inconclusive: 29.1 µM [rising, partial curve, poor fit]"},
      {"smiles": "O=C(Nc1ccc2c(c1)OCCO2)c1ccc2ccccc2n1", "Potency": "inconclusive: 14.6 µM [cytotoxic, single point]"},
      {"smiles": "CC1CCN(C(=O)CN2C(=O)C(=O)N(C(C)C)C2=O)c2ccccc2S1", "note": "(stereo not drawn)", "Potency": "inconclusive: 32.6 µM [cytotoxic, single point]"},
      {"smiles": "Oc1ccc(C[C@H]2CNC(=S)N2CC2CCCN2C[C@H](Cc2ccc(O)cc2)N2C[C@H](Cc3ccccc3)N(CC3CCCCC3)C2=S)cc1", "note": "(stereo partly drawn)", "Potency": "inactive"},
      {"smiles": "O=C(Nc1cccc(C(F)(F)F)c1)C1CC(=O)N(Cc2ccco2)C1", "note": "(stereo not drawn)", "Potency": "inconclusive: 29.1 µM [rising, single point]"},
      {"smiles": "CN1CCN(CCCN2c3ccccc3Sc3ccc(Cl)cc32)CC1", "Potency": "inconclusive: 7.31 µM [cytotoxic, partial curve, poor fit] and active: 16.4 µM"},
      {"smiles": "CCN(CC)CCCNC(=O)C1c2cc(OC)c(OC)cc2C(=O)N(C)C1c1cccs1", "note": "(stereo not drawn)", "Potency": "inconclusive: 5.17 µM [rising, partial curve]"},
      {"smiles": "COc1ccc(NC(=O)CN(C)C(=O)c2ccc(S(=O)(=O)Nc3ccccc3F)cc2)cc1", "Potency": "inconclusive: 18.4 µM [rising, single point]"},
      {"smiles": "Cc1ccc(O)c(C(CC(=O)NC2CCCCC2)c2ccccc2)c1", "note": "(stereo not drawn)", "Potency": "inconclusive: 14.6 µM [cytotoxic, partial curve]"},
      {"smiles": "Cc1ccc(N(CC(=O)Nc2c(C)n(C)n(-c3ccccc3)c2=O)S(C)(=O)=O)cc1C", "Potency": "inconclusive: 32.6 µM [rising, single point]"},
      {"smiles": "O=[N+]([O-])c1cccnc1N1CCOCC1", "Potency": "inconclusive: 0.0731 µM [rising, full curve, poor fit]"},
      {"smiles": "CC(C)(C)NC(=O)C[C@H]1C[C@H](C(=O)N2CCCCC2)[C@@]2(C)c3[nH]c4ccc(Cl)cc4c3CCN2C1=O", "Potency": "inactive"},
      {"smiles": "CCOC(=O)C1CCN(C(=O)COC(=O)C23CC4CC(CC(C4)C2)C3)CC1", "Potency": "inconclusive: 16.4 µM [rising, single point]"},
      {"smiles": "CCN1C(=O)/C(=C\\N2CCCc3ccccc32)SC1=S", "Potency": "inconclusive: 8.2 µM [cytotoxic, partial curve]"},
      {"smiles": "Cc1cc(NC(=O)c2noc3c2CCCCC3)no1", "Potency": "inconclusive: 25.9 µM [cytotoxic, partial curve, poor fit]"},
      {"smiles": "COc1ccc2cc3cc(C(=O)NCCN4CCN(Cc5ccccc5)CC4)oc3nc2c1", "Potency": "inactive"},
      {"smiles": "COc1ccc(C(CC(=O)c2ccc(O)cc2)S(=O)(=O)c2ccc(C)cc2)cc1", "note": "(stereo not drawn)", "Potency": "inconclusive: 29.1 µM [cytotoxic, partial curve, poor fit]"},
      {"smiles": "Cc1ccc(NC(=O)C2CCC(CNS(=O)(=O)c3ccc4c(c3)CCCC(=O)N4)CC2)cc1F", "note": "(stereo not drawn)", "Potency": "inactive"},
      {"smiles": "CCCCCOc1ccc(C(=O)CCC(=O)NNC(=O)c2ccncc2)cc1", "Potency": "inactive"},
      {"smiles": "O=C(CSc1nnc(-c2cccc(F)c2)o1)N1CCCC1", "Potency": "inactive"},
      {"smiles": "COc1ccc(-n2c(CNc3ccc(C)cc3)nnc2SCC(=O)Nc2nc(-c3ccccc3)cs2)cc1", "Potency": "inactive"},
      {"smiles": "Brc1ccc2ncnc(Nc3ccc(N4CCOCC4)cc3)c2c1", "Potency": "active: 2.91 µM"},
      {"smiles": "Cc1cc(C(=O)NNC(=S)NC(C)c2ccccc2)cs1", "note": "(stereo not drawn)", "Potency": "active: 14.6 µM"},
      {"smiles": "O=C(CNC(=O)c1ccc2ccccc2c1)Nc1ncccc1O", "Potency": "inconclusive: 9.2 µM [rising, partial curve]"},
      {"smiles": "COc1ccc(CCN(C)CCC(=O)Nc2ccc(C)cc2)cc1OC", "Potency": "inconclusive: 10.3 µM [cytotoxic, partial curve]"},
      {"smiles": "COc1ccc(C2C(C(=O)Nc3cccc(C)n3)CCC(=O)N2c2ccc(OC)cc2)cc1", "note": "(stereo not drawn)", "Potency": "inactive"}
    ]}
  ]
}
